No constants are given. Whether binding was seen depends on the method and setting. Some entries that bind do so weakly or less than the wild type.
T1: human prolactin receptor (human) (UniProt P16471)
T1 sequence (looked up): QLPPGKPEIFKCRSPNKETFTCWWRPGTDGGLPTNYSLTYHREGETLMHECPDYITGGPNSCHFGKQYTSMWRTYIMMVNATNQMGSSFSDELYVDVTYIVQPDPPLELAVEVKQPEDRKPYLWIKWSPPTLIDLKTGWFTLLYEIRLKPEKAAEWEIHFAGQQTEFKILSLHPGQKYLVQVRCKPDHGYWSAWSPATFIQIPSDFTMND


Experiments:
[1] = molecular target: T1, human prolactin receptor (human); assay: SPR (Biacore 2000), biotinylated antigen on streptavidin chip, purified VH
[2] = molecular target: Hen-Egg-Lysozyme (hen) (UniProt P00698); assay: as above

Binder | binding [1] | binding [2]
VHPRLR_C02 (anti-hPRLR VH) (protein) VH: EVQLLESGGGLVQPGGSLRLSCAASGFRFADEDMGWVRQAPGKGLEWVSDISGDGYSTYYADSVKGRFTISRDNSKNTLYLQMNSLRAEDTAVYYCAKLPPVYLGGAFDYWGQGTLVTVSS | binds | –
VHHEL_G08 (anti-HEL VH) (protein) VH: EVQLLESGGGLVQPGGSLRLSCAASGFRISDEDMGWVRQAPGKGLEWVSYIDNNGYSTYYADSVKGRFTISRDNSKNTLYLQMNSLRAEDTAVYYCAKKQYGYQNGGFDYWGQGTLVTVSS | – | binds

Source: US20160145328A1
